Source: patent US20130011436A1
No constants are given. Whether binding was seen depends on the method and setting. Some entries that bind do so weakly or less than the wild type. Sequences can lack the tags named with a protein.

Sequences of proteins named here, by UniProt entry; tags and fusion partners are left off.
UniProt P61073: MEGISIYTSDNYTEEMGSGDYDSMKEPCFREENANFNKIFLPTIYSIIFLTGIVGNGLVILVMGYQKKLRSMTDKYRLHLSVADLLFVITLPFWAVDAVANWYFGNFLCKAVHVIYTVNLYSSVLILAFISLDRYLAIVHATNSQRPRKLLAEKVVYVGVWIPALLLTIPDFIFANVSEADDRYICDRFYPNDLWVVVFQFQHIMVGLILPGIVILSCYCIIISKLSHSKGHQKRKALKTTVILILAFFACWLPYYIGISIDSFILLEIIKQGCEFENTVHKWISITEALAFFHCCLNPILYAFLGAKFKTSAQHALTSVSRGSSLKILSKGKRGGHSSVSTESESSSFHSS

Target: CXCR4 receptor expressed on SupT-1 cells (UniProt P61073)
Assay: flow cytometry on SupT-1 cells; biotinylated CXCR4-A-Fc (300 µg/ml) and streptavidin-PE

KGVSLSYR (Fc fusion, biotinylated in the flow cytometry assay (site not stated)) [CXCR4-A-Fc fusion protein]
binding: binds
